Measurements: article PMC4074151
Results are given in words; binding and its absence hold for the method and conditions named. Binding seen in cells or lysates may run through a third protein. Some binding calls cover weakened binding; strength is not graded here.

By UniProt entry, the sequences of proteins in these tests, tags left out. Where a name states a change or a piece, a line headed by the entry shows the natural chain unless it says otherwise. Chains listed by the source or under a name are the forms on record and can include a tag or linker. Residues count along the entry.
UniProt P55854, residues 1-92: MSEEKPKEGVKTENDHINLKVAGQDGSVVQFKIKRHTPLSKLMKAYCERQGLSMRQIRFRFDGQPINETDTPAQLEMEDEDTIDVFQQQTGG
UniProt P63165, residues 1-97: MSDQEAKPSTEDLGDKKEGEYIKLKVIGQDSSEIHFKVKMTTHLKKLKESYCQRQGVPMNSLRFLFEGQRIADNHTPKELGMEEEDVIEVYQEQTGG
UniProt P00441: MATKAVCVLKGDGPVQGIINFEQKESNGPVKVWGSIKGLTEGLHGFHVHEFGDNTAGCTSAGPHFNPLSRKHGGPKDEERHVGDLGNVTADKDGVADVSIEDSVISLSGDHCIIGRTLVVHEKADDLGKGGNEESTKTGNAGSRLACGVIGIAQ
FLAG-tagged G93R-SOD1 (superoxide dismutase 1, familial ALS-linked mutant G93R) (P00441, form named): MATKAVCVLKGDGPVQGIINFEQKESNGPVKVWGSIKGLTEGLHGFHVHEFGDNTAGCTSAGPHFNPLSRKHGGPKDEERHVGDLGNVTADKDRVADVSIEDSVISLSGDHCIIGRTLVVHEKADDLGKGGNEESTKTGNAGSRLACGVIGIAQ

Tests used:
[1] = molecular target: HA-tagged SUMO3 (small ubiquitin-like modifier 3) (human) (UniProt P55854); assay: co-IP; NSC34 cells cotransfected with FLAG-tagged SOD1 (G93R or wild type), HA-tagged SUMO1/3 or vector, and myc-tagged Ubc9; lysates in RIPA buffer with 10 mM N-ethylmaleimide; immunoprecipitated with anti-HA antibody (M180-3, MBL); immunoblot with HRP-conjugated anti-FLAG
[2] = molecular target: HA-tagged SUMO1 (small ubiquitin-like modifier 1) (UniProt P63165); assay: as above

Row | Substance | binding [1] | binding [2]
1 | FLAG-tagged G93R-SOD1 (superoxide dismutase 1, familial ALS-linked mutant G93R) (from UniProt P00441 1-154) | binds | 
2 | FLAG-tagged wild-type SOD1 (superoxide dismutase 1) (from UniProt P00441 1-154) | no binding | no binding
